# From PubChem BioAssay AID1671190 (National Center for Advancing Translational Sciences (NCATS), 2021)
# The chains behind the UniProt entries cited, without tags or fusion partners. Where a name states a change or a piece, a line headed by the entry shows the natural chain unless it says otherwise.
# UniProt P18054: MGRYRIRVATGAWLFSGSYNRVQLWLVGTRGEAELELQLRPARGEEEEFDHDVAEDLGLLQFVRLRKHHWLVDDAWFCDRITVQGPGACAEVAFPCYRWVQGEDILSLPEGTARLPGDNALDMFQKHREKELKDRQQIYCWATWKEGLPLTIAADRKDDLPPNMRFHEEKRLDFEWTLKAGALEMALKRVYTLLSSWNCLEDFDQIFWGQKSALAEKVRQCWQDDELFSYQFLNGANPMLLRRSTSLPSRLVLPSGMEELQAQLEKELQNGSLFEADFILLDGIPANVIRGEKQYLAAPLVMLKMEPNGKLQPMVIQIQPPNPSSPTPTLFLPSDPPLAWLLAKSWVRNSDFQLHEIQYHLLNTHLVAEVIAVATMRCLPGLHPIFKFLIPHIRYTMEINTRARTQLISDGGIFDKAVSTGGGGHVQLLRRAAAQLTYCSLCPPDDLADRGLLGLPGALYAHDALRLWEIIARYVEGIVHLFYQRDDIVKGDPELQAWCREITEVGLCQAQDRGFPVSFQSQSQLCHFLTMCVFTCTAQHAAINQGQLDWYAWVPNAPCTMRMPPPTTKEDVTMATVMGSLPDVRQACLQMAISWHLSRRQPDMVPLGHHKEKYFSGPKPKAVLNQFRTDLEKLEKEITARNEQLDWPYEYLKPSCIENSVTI
# In all, about 580,000 compounds went through this assay and about 6,100 (1.1%) were called active. The shares of active, inactive and inconclusive entries below differ from those in the screen. Calls come from the whole dose curve; as a rule, active = well fitted inhibition curve with a large enough effect; inconclusive = small, poorly fitted or top-dose-only effect, or another doubt; inactive = no such curve, though single readings can be large or run the other way. A potency beside an inconclusive call is a rough fit, not a confirmed value.
# Target: Polyunsaturated fatty acid lipoxygenase ALOX12 (Homo sapiens) (UniProt P18054)
# Assay: Primary qHTS assay for inhibitors of human arachidonate 12S-lipoxygenase (ALOX12): Round 2
# Details: purified 12hLO, xylenol orange hydroperoxide absorbance; series mostly up to 108 µM
# Outline: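 Purified human 12hLO at 150 nM in 25 mM Hepes, 0.01% Triton X-100, pH 7.0, preincubated 15 min at room temperature with compound. Reaction started with 40 uM arachidonic acid, 30 min at room temperature. Hydroperoxide measured by Fe-xylenol orange, 573/405 nm absorbance ratio.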
# Potency is the fitted concentration of half-maximal effect.
row,SMILES,Potency
1,CN1OC[C@@H]2CN3C4(C[C@@H]21)c1ccccc1C3(c1ccccc1)c1ccccc14,inactive
2,O=C(CN1CCOCC1)c1cccc2ccccc12,"inconclusive: 0.794 µM [inhibitor, full curve, poor fit]"
3,Cn1c(=O)c2c(nc(N/N=C/c3c(O)n(-c4ccccc4)c(=S)[nH]c3=O)n2C)n(C)c1=O,"inconclusive: 44.7 µM [inhibitor, partial curve, poor fit]"
4,CC1(C)NCCN2C(=O)CSC21 (centres undefined),"inconclusive: 39.8 µM [inhibitor, partial curve, poor fit]"
5,CCOc1ccccc1NC(=O)N(Cc1ccc2c(c1)OCO2)C1CCN(Cc2ccccc2)CC1,"inconclusive: 25.1 µM [inhibitor, full curve, poor fit]"
6,COC(=O)C1=Nc2ccccc2/C1=C\c1c(O)n(-c2cc(OC)ccc2OC)c(=O)[nH]c1=O,"inconclusive: 44.7 µM [inhibitor, partial curve, poor fit]"
7,CC/C(=N\NC(=S)Nc1ccccc1)c1c(O)[nH]c(=O)[nH]c1=O,"inconclusive: 39.8 µM [inhibitor, partial curve, poor fit]"
8,CC(C)CN(CC(C)C)c1ccc(C=C2C(=O)NC(=S)NC2=O)cc1[N+](=O)[O-],"inconclusive: 1.78 µM [inhibitor, full curve, poor fit]"
9,COC(=O)C12CCC(CC1c1ccccc1)OC2=O (centres undefined),"inconclusive: 89.1 µM [inhibitor, single point]"
10,O=C1Nc2ccccc2CC12CCN(Cc1ccccn1)C2 (centres undefined),"inconclusive: 35.5 µM [inhibitor, single point]"
11,C[C@]12CCC3C(CC[C@@H]4[C@H]5O[C@H]5CC[C@]34C)C1CC[C@@H]2O (some centres undefined),"inconclusive: 31.6 µM [inhibitor, full curve, poor fit]"
12,O=C(COC(=O)c1cccc(O)c1)Nc1ccc(Cl)cc1C(=O)c1ccccc1,"inconclusive: 50.1 µM [inhibitor, partial curve, poor fit]"
13,CNc1cc(Cl)c2nonc2c1[N+](=O)[O-],"inconclusive: 44.7 µM [inhibitor, partial curve, poor fit]"
14,Cc1cc(/C=C2\C(=O)NC(=O)N(Cc3ccccc3Cl)C2=O)c(C)n1-c1ccc(C(=O)O)cc1,"inconclusive: 79.4 µM [inhibitor, partial curve, poor fit]"
15,CN1C(=O)C(=Cc2ccccc2Oc2ccc(Cl)c(F)c2)C(=O)N(C)C1=O,"inconclusive: 50.1 µM [inhibitor, partial curve, poor fit]"
16,CN[C@@H](C)[C@@H](O)c1ccccc1,inactive
17,Cc1cc2c(cc1C)NP(=S)(c1ccccc1)N2,"inconclusive: 39.8 µM [inhibitor, partial curve, poor fit]"
18,CC1CN2CCCCC2CN1 (centres undefined),"inconclusive: 7.08 µM [inhibitor, full curve, poor fit]"
19,CN1CCN(c2ncc3ncc(=O)n(C)c3n2)CC1,"inconclusive: 39.8 µM [inhibitor, partial curve, poor fit]"
20,Cc1cccc(-n2nnnc2C2(NC(C)C)CCCCC2)c1,inactive

row,SMILES,Potency
1,N#Cc1cc([N+](=O)[O-])ccc1NC(=O)c1cccn(Cc2cccc(F)c2)c1=O,"inconclusive: 79.4 µM [inhibitor, partial curve, poor fit]"
2,C=C[C@@H]1C2=CCOC(=O)C2=CO[C@H]1O[C@@H]1O[C@H](CO)[C@@H](O)[C@H](O)[C@H]1O,"inconclusive: 44.7 µM [inhibitor, partial curve, poor fit]"
3,COc1ccccc1N=Nc1c(O)[nH]c(=S)[nH]c1=O,"inconclusive: 39.8 µM [inhibitor, partial curve, poor fit]"
4,O=C(O)C1=CCCN(CCOC(c2ccc(C(F)(F)F)cc2)c2ccc(C(F)(F)F)cc2)C1,"inconclusive: 35.5 µM [inhibitor, partial curve, poor fit]"
5,COCCNC(=O)[C@H]1CN2CC[C@H]1C[C@@H]2Cn1cc(C2(O)CCCC2)nn1,inactive
6,COc1ccc(OC)c(CN2CCN(C(=O)Cc3ccccc3)CC2)c1,"inconclusive: 0.199 µM [inhibitor, full curve, poor fit]"
7,Cn1c(O)c(C(=Nc2ccccc2)SCc2ccccc2Cl)c(=O)n(C)c1=O,"inconclusive: 0.631 µM [inhibitor, full curve, poor fit]"
8,O=C1NC(=S)NC(=O)C1C/C=C/c1ccccc1,active: 3.98 µM
9,C#C[C@]1(O)CC[C@H]2[C@@H]3CCC4=CC(=O)CCC4=C3C=C[C@@]21CC,"inconclusive: 11.4 µM [inhibitor, partial curve, poor fit]"
10,O=C(CCl)c1ccc(Cl)cc1Cl,"inconclusive: 18.1 µM [inhibitor, partial curve, poor fit]"
11,CCOP(=O)(OCC)C(O)c1ccc2c(c1)OCO2 (centres undefined),"inconclusive: 112 µM [inhibitor, single point]"
12,Cc1cccc(N2C(=O)/C(=C/c3ccc(CN(CCC#N)S(C)(=O)=O)o3)C(=O)NC2=S)c1,active: 12.6 µM
13,CCOP(=O)(Cc1cc(C(C)=O)c(C)o1)OCC,"inconclusive: 35.5 µM [inhibitor, partial curve, poor fit]"
14,CCOC(=O)[C@]12Cc3cc(OC)ccc3[C@H]1N(CC(=O)OC)C(=O)c1ccccc12,"inconclusive: 20 µM [inhibitor, single point]"
15,CCCNc1oc(-c2cccc3ccccc23)nc1C#N,"inconclusive: 15.8 µM [inhibitor, full curve, poor fit]"
16,COc1ccc(C(=O)C2CCCN(C3CSCCSC3)C2)cc1OC (centres undefined),inactive
17,C[C@H]1O[C@H](OC2[C@@H](O)[C@@H](O)C(O)[C@H](O)[C@H]2O)[C@@H](N)C[C@@H]1N=C(N)C(=O)O (some centres undefined),"inconclusive: 44.7 µM [inhibitor, partial curve, poor fit]"
18,Cc1ccsc1C(=O)N1CCC2(CC1)c1nccn1-c1ccccc1CN2C,inactive
19,CC(C)NC(=O)N1C[C@@H]2C[C@H](C1)c1ccc(-c3cccc(C(F)(F)F)c3)c(=O)n1C2,"inconclusive: 89.1 µM [inhibitor, partial curve, poor fit]"

# Gathered by group: the compounds so far containing a CF3 group (2)
row,SMILES,Potency
4,O=C(O)C1=CCCN(CCOC(c2ccc(C(F)(F)F)cc2)c2ccc(C(F)(F)F)cc2)C1,"inconclusive: 35.5 µM [inhibitor, partial curve, poor fit]"
19,CC(C)NC(=O)N1C[C@@H]2C[C@H](C1)c1ccc(-c3cccc(C(F)(F)F)c3)c(=O)n1C2,"inconclusive: 89.1 µM [inhibitor, partial curve, poor fit]"
